In the supplement of paper PMC10735217:
Structures can show the parent of a compound that is named as a salt. This is one part of the list. Single values are uncertain here, since repeats match poorly.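 The human kidney-derived cells carry a stably integrated construct of eight TEAD-binding elements driving luciferase, read by luminescence in a drug-repurposing library screen. A compound counts as a hit when its signal is more than five robust Z scores above the plate mean.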

Tested on: HEK293A TEAD-LUC reporter
Test: TEAD-luciferase reporter activity (YAP activation), robust Z score vs plate; higher = stronger YAP/TEAD activation
Details: 24 h

| SMILES | TEAD-luciferase reporter activity (compound concentration: 200 nM) | TEAD-luciferase reporter activity (compound concentration: 2 uM) | TEAD-luciferase reporter activity (compound concentration: 10 uM) |
| --- | --- | --- | --- |
| NC[C@H]1O[C@H](O[C@H]2[C@H](O)[C@@H](O)[C@H](N)C[C@@H]2N)[C@H](N)[C@@H](O)[C@@H]1O [Neamine] | inactive: -1.49 | inactive: 0.297 | inactive: -0.946 |
| C#CC1(OC(N)=O)CCCCC1 | inactive: -0.492 | inactive: -0.308 | inactive: -0.654 |
| CCC(=O)O[C@H]1CC[C@H]2[C@@H]3CCC4=CC(=O)CCC4(C)[C@H]3CCC12C (some centres not stated) [Testosterone propionate] | inactive: 4.18 | inactive: -0.275 | inactive: 0.749 |
| CNC(=O)Oc1nc2ccccc2[nH]1 [benzimate] | inactive: -0.256 | inactive: 2.99 | inactive: 0.233 |
| OCCN1CCCCC1C(c1ccccc1)c1ccccc1 (configuration not stated) | inactive: -1.4 | inactive: 0.682 | inactive: 1.09 |
| c1ccc(C2CC2)c(OCC2=NCCN2)c1 [cirazoline] | – | inactive: -1.08 | – |
| c1ccc(C2CC2)c(OCC2=NCCN2)c1 [Cirazoline hydrochloride] | inactive: 0.283 | – | inactive: -0.164 |
| CCS(=O)(=O)Nc1ccc2c(c1)nc(C(C)(C)C)n2CC1CCC(F)(F)CC1 | inactive: -0.995 | inactive: -0.758 | inactive: 1.27 |
| O=NNc1cnccn1 | inactive: 0.35 | inactive: -1.3 | inactive: -0.908 |
| C1CCC2(CC1)OOC1(O2)C2CC3CC(C2)CC1C3 (configuration not stated) | inactive: 0.492 | inactive: -0.171 | inactive: 1.38 |
| O=c1[nH]c(CCCN2CC=C(c3ccc(F)cc3)CC2)nc2c(Cl)cccc12 | inactive: -1.77 | inactive: 0.0989 | inactive: -0.201 |
| Cc1ccc(Cn2nc(C(=O)N[C@@H]3C(C)(C)[C@@H]4CC[C@@]3(C)C4)cc2-c2ccc(Cl)c(C)c2)cc1 | inactive: 0.0698 | inactive: -0.583 | inactive: -0.093 |
| O=C(/C=C/c1ccccc1)OCC1OC(O[C@@H]2OC=C[C@H]3[C@H](O)[C@@H]4O[C@]4(CO)[C@@H]23)C(O)C(O)C1O (some centres not stated) [Picroside I] | inactive: -1.09 | inactive: -0.0263 | inactive: -1.51 |
| NC(=O)c1cc(N2CC2)c([N+](=O)[O-])cc1[N+](=O)[O-] | inactive: -0.702 | – | inactive: 2.94 |
| NC(=O)c1cc(N2CC2)c([N+](=O)[O-])cc1[N+](=O)[O-] [Tretazicar] | – | inactive: -2.67 | – |
| CCOC(=O)CN(CC(=O)Nc1ccc(Cl)cc1C(=O)c1ccccc1)CC(=O)OCC | inactive: 0.259 | inactive: -0.358 | inactive: 1.44 |
